The target of test [1] is GST-FOXP3 (UniProt Q9BZS1). Briefly: AlphaScreen or HTRF; cell-free cross titration: FOXP3-6His 1000 to 0 nM against GST-FOXP3 300 to 0 nM; GST-FOXP3 against 6His-AML1; both purified. (In general: Alpha assays give light when donor and acceptor beads are brought close together.)
Test [2] concerns the target GST-FOXP3 (UniProt Q9BZS1). Briefly: AlphaScreen or HTRF; cell-free; GST-FOXP3 at 40 nM and FOXP3-His at 300 nM, or GST-FOXP3 with 6His-AML1, with different concentrations of P60, P60-derived peptides or a control peptide; both purified.

Chains of the proteins cited; added tags and fusions are not shown. Residues count along the entry.
UniProt Q9BZS1, residues 1-417: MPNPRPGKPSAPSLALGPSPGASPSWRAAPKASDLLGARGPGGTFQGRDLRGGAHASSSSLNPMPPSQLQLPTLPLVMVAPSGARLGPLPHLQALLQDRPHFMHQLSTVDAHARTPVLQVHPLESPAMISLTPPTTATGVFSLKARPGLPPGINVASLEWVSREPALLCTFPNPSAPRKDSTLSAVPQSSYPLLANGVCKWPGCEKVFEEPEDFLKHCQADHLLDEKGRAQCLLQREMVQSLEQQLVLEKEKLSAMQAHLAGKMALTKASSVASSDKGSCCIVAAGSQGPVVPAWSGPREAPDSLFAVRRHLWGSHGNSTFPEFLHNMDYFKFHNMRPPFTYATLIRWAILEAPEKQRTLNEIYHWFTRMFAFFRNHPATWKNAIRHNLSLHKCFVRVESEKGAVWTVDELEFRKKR
UniProt Q01196: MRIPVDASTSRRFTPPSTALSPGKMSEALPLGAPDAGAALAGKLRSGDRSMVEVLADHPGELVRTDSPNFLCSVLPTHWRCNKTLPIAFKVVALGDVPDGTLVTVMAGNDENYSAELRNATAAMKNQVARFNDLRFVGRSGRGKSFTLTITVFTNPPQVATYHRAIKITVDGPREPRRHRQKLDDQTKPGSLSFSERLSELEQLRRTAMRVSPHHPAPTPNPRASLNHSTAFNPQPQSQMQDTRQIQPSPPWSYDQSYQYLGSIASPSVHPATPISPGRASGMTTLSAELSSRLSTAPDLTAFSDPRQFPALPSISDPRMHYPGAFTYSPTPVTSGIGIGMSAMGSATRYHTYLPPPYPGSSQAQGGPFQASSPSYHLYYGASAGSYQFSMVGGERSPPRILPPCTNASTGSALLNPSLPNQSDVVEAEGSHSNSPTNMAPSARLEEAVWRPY

No constants are given. Whether binding was seen depends on the method and setting. Some binding calls cover weakened binding; strength is not graded here.

Regarding “AML1 protein tagged with 6 His at the N-terminus (from UniProt Q01196 1-453)”, the binding entry in the test with GST-FOXP3 [1] and with GST-FOXP3 [2] was “binds” throughout.

The values are drawn from publication PMC5641083, “Blockage of FOXP3 transcription factor dimerization and FOXP3/AML1 interaction inhibits T regulatory cell activity: sequence optimization of a peptide inhibitor” (Oncotarget, 2017).
